Test results reported in paper PMC2848553.
For at least one entry, the source does not settle the construct or the ends of the probe. Results from cells or extracts need not show a direct contact. For part of these data: No signal at the amounts used counts as a negative. For part of these data: At least one verdict rests on a figure or table, not on a statement of the authors.

By UniProt entry, the sequences of proteins in these tests, tags left out. Where a name states a change or a piece, a line headed by the entry shows the natural chain unless it says otherwise.
UniProt Q8BG36: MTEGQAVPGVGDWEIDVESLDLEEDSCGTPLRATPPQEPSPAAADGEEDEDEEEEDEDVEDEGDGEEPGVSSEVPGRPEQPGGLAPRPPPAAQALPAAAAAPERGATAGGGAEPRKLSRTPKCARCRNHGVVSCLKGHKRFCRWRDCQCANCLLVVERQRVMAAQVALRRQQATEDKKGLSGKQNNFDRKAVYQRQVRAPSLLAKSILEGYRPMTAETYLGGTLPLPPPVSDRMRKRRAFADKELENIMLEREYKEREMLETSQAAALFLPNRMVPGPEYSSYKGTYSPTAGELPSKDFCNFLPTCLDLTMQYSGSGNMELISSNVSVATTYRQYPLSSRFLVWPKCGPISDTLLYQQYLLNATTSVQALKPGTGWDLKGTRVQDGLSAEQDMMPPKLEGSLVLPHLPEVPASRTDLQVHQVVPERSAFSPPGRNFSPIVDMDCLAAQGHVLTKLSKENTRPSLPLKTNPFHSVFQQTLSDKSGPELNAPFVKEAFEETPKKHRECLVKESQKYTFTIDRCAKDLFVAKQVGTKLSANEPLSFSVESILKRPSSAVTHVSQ

target: Dmrt2-HA (UniProt Q8BG36); experiment: EMSA; details: complex disrupted by anti-HA (site not specified); LightShift Chemiluminescent EMSA kit; 40 fmol biotin dsDNA with 1 ug HEK293 extract protein (lysis in 15 mM Tris pH 7.4, 0.5% NP40, stored in 25% glycerol); protein in a lysate after overexpression; protein details: HA; label: 5'-biotin (unlabeled as competitor)

Row | Sequence | binding result
1 | CTGTTTCCTAGTGTAGATCT (double strand) [Dmrt2BS1] | binds
2 | TCTCTGTAGCTCTCATGTAAA (double strand) [Dmrt2BS4] | binds
3 | TCTGTTTTTCCTGTAACCTC (double strand) [Dmrt2BS3] | binds

target: Dmrt2-HA (UniProt Q8BG36); experiment: competition with a labelled probe; details: unlabeled mutant did not abolish binding; LightShift Chemiluminescent EMSA kit; 40 fmol biotin dsDNA with 1 ug HEK293 extract protein (lysis in 15 mM Tris pH 7.4, 0.5% NP40, stored in 25% glycerol); protein in a lysate after overexpression; protein details: HA; label: none (competitor)

Row | Sequence | binding result
4 | CTGTTTCCTTGTTTTGATCT (double strand) [mutDmrt2BS1] | no binding
5 | TCTCTTTTGCTCTCATTTTAA (double strand) [mutDmrt2BS4] | no binding
6 | TCTGTTTTTCCTTTTATCTC (double strand) [mutDmrt2BS3] | no binding
